Here are results for 42 sequences from PMC7819943, “Rice protein-binding microarrays: a tool to detect cis-acting elements near promoter regions in rice”.

Some of the results follow.

This assay addresses T1, OsSMF1 (Oryza sativa, UniProt Q6ZLB0 1-436).
T1 sequence: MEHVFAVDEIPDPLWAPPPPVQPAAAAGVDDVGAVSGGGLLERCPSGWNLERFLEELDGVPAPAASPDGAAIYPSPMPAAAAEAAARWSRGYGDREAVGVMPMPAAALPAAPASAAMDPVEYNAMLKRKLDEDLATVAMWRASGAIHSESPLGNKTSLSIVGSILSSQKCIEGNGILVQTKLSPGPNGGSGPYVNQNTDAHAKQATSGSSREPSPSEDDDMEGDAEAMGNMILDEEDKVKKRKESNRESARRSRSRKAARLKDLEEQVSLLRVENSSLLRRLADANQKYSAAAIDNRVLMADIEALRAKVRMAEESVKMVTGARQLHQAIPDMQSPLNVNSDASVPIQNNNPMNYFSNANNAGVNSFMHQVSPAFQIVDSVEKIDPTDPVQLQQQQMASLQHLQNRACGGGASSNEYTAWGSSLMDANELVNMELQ
Nature of the assay: protein-binding microarray (RPBM); PBS, 2% BSA, 51.3 ng/ul salmon testes DNA, 50 uM zinc acetate, 200 nM TF, 25 C, 1 h; high values mean tight binding. Conditions: protein: recombinant; tags: N-terminal polyhistidine and DsRed monomer fusion (pET32a); chain copies: 2; label: CyDye5-dUTP incorporated in the synthesized complementary strand; 3' TTTTT single-stranded linker to array surface; dsDNA, one strand shown. The essentials:
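The binding signal is fluorescence intensity per array feature (arbitrary units). Readings came from an Axon 4000B scanner after a washed, 2% BSA-blocked, double-stranded custom Agilent array had been incubated for 1 h at 25 °C with 200 nM protein and 50 µM zinc acetate. The protein was a Ni–NTA-purified transcription factor fused N-terminally to polyhistidine and DsRed, expressed in E. coli BL21-CodonPlus.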
With “TAGTACTATGAATCTGGACAGATAATGTCACATCCTATACCGGAGTCACCTAGTGCAG”, the binding signal is 3720 fluorescence intensity (a.u.).

Consider “ACTGACTGCTACGTCTCTGTCTACGTATACCCCAGCCTCCCGGAGTCACCTAGTGCAG”, for which the binding signal is 3680 fluorescence intensity (a.u.). As to “CCTAAATAAGCTAGCAAAATAGCCAATGCCAGCCAATATTCGGAGTCACCTAGTGCAG”, the binding signal was 28300 fluorescence intensity (a.u.). “CCGACGGCGAACCTGACTCACCGGCGGCCGCGAGGAGGCGCGGAGTCACCTAGTGCAG”: the binding signal is 6180 fluorescence intensity (a.u.). On to “CCGCTGCCTTTGAGTGAGTCGTCGTCTTGAGTCACGACGACGGAGTCACCTAGTGCAG”, for which the binding signal is 5620 fluorescence intensity (a.u.). Turning to “CTCACTTTCCTCGTTTTCCGTACACATGCTTACCAAATTGCGGAGTCACCTAGTGCAG”, the binding signal was 4950 fluorescence intensity (a.u.). With “GGGGTGAGGATGAAGATGATGATGATGATGACCCTGAGGCCGGAGTCACCTAGTGCAG” the figure was 3180 fluorescence intensity (a.u.); with “TCCAGCGAGAGGCGTACGTGAGTGCGTGCGTACGTGCGGGCGGAGTCACCTAGTGCAG”, 5230 fluorescence intensity (a.u.). With “TGCATGTGCAAACCTGGGTTTGTACACGTACTGACCACAGCGGAGTCACCTAGTGCAG” the figure was 5380 fluorescence intensity (a.u.). With “TGTGCAGGTCCATCTAGTGTGTGCTGGAGGGAGGGAACGGCGGAGTCACCTAGTGCAG” the figure was 3360 fluorescence intensity (a.u.); with “GGCGAGGAGAGTCGCAACGACAGGTCATGGGTGCGGACACCGGAGTCACCTAGTGCAG”, 3320 fluorescence intensity (a.u.); with “GCAGGTAAACAGCTCTATCAACCTGACCAGTAAAGACCATCGGAGTCACCTAGTGCAG”, 3270 fluorescence intensity (a.u.). On to “TTCTCTTCCTCCCCTCTATCTTCCACGTCACCAAATTTACCGGAGTCACCTAGTGCAG”, for which the binding signal is 16600 fluorescence intensity (a.u.). For “CTGATGATGCACATACGTATGCACTGACGTAAGCAGAATTCGGAGTCACCTAGTGCAG”, the binding signal was 7040 fluorescence intensity (a.u.). For “ACCATGCCACGTCAGCGAAACCGGCCTTATATGCTACTGGCGGAGTCACCTAGTGCAG”, the binding signal is 22800 fluorescence intensity (a.u.). Take “AGGCAGCCATATATATGGTTCTGACGTTGCCTTGCTGAATCGGAGTCACCTAGTGCAG”: the binding signal is 18400 fluorescence intensity (a.u.). The figure for “TGCTATGCTAATGTGCGTGCCCATCGTACGGGATGTTTGACGGAGTCACCTAGTGCAG” is 20400 fluorescence intensity (a.u.). For “TCAAAACAACCATAATGACGAAACTGTTCACACATTGTGACGGAGTCACCTAGTGCAG”, the binding signal was 18300 fluorescence intensity (a.u.).

Take “GCAAGCGCCTTCGCCTGCCACGCCACCGCCTCCGCCCTTACGGAGTCACCTAGTGCAG”: the binding signal is 9200 fluorescence intensity (a.u.).

As for “GCTAGCGCGCATTGACCAAGATCCGATTTGTATGCTAGTGCGGAGTCACCTAGTGCAG”, the binding signal was 4060 fluorescence intensity (a.u.). As for “AGCTCGAACATGGCGCGCCGGAGCGACGGCATCAGCTCGCCGGAGTCACCTAGTGCAG”, the binding signal is 3700 fluorescence intensity (a.u.).

On to “GGCAGCGGCGGCCGGAACGACGCCGCCGTGGATGGGGTGGCGGAGTCACCTAGTGCAG”, for which the binding signal is 3650 fluorescence intensity (a.u.). Regarding “CTATTGGGTGGACGCCGAAGACAGCTTCTTCCCACGCCGCCGGAGTCACCTAGTGCAG”, the binding signal was 3430 fluorescence intensity (a.u.).

As for “ATAACCAGGCTACTACCAGCAACTTTGCTGACAGTGACTGCGGAGTCACCTAGTGCAG”, the binding signal was 3520 fluorescence intensity (a.u.). In the case of “TGAGAGTGAGAGGAGGAGAGAGCTAAGTTAGTTAGAGCTCCGGAGTCACCTAGTGCAG”, the binding signal was 21600 fluorescence intensity (a.u.). For “TTGAAATTCATTATTGTCAGCATTGTCATCCTGAGTAGATCGGAGTCACCTAGTGCAG”, the binding signal was 6500 fluorescence intensity (a.u.). With “ATTAACACTAATTTACATCATTCTCAGCCTGTTTTCACTTCGGAGTCACCTAGTGCAG”, the binding signal is 3440 fluorescence intensity (a.u.). As for “TGGCTACTCCTAATAATAAGATATTTTGATTGAATATGACCGGAGTCACCTAGTGCAG”, the binding signal was 31800 fluorescence intensity (a.u.). Take “ATGGTCAAACATGTGTTCAAAATTCAACGCGTCATCTATTCGGAGTCACCTAGTGCAG”: the binding signal was 5400 fluorescence intensity (a.u.). As for “TTCGTGGAATGGAAACCTCCACGTGCTCCTCTTATCCTCACGGAGTCACCTAGTGCAG”, the binding signal was 5770 fluorescence intensity (a.u.).

As for “CATGGCTACATTCAGAGCCCCGACGGTGATGTCATCGACTCGGAGTCACCTAGTGCAG”, the binding signal is 9070 fluorescence intensity (a.u.). With “AGCACCAGGTGTTTATTAGCTTCTCTCCACGTCTTCTTCCCGGAGTCACCTAGTGCAG” the figure was 6240 fluorescence intensity (a.u.); with “TGGAGGAGGACAATCTTTTGGTGTCGGCGTGGATAAATGTCGGAGTCACCTAGTGCAG”, 5020 fluorescence intensity (a.u.); with “GTTCGCGTCGCCGCGGCACAGCGCCAGCGCGGACACCTGGCGGAGTCACCTAGTGCAG”, 4740 fluorescence intensity (a.u.). On to “CTACCAGCAGGATGACATTAACCTGTATTTATTTCGTTTTCGGAGTCACCTAGTGCAG”, for which the binding signal is 20400 fluorescence intensity (a.u.). As to “TCTGTCCCTACGTACCGGACAAACCTGACGTTGGCACTACCGGAGTCACCTAGTGCAG”, the binding signal was 5680 fluorescence intensity (a.u.).

“CCCTAGACAGATCAGCTTTGGTGTCTTGGTGGTTGTTGTCCGGAGTCACCTAGTGCAG”: the binding signal was 5140 fluorescence intensity (a.u.). In the case of “TACGCATGCACACCGGAGCGCGTGACGTGGCCCCATGCAACGGAGTCACCTAGTGCAG”, the binding signal is 13700 fluorescence intensity (a.u.). Consider “TTTGTATGACTGTCTGTGTGCGATCCCATCTGAAAATCCTCGGAGTCACCTAGTGCAG”, for which the binding signal was 3160 fluorescence intensity (a.u.). For the sequence “CTGTAGAACTTGGACCAGCAGCATCAGCAGTAGTAGCAGGCGGAGTCACCTAGTGCAG”, the binding signal was 3140 fluorescence intensity (a.u.).

As to “ATGGAGTATTTGAATATTTCGCTCTTGCCAGTGACTTGTGCGGAGTCACCTAGTGCAG”, the binding signal was 3610 fluorescence intensity (a.u.). For the sequence “TACTATATGTGAGTGTGGAGTGTATGTATAATGGTGTTAGCGGAGTCACCTAGTGCAG”, the binding signal is 3310 fluorescence intensity (a.u.).
